Data from PMC12811337.
Read-outs that look alike come from different tables or passages of the source. Results are given in words; binding and its absence hold for the method and conditions named. In cells and extracts the contact can be indirect. A yes stands for co-enrichment or nearness to the bait. Other partners may have been found. Values belong to the molecule of their own block, whether it stands above or below them.

Sequences of proteins named here, by UniProt entry; tags and fusion partners are left off.
UniProt G5EFM9: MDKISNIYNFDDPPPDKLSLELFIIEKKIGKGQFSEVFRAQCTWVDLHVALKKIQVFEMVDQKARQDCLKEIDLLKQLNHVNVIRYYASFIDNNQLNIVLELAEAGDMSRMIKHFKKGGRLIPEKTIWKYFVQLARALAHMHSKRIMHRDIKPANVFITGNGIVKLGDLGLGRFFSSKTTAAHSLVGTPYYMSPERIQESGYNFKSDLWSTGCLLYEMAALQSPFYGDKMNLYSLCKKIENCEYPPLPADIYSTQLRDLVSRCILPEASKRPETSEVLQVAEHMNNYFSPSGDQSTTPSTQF
UniProt G5EDY0: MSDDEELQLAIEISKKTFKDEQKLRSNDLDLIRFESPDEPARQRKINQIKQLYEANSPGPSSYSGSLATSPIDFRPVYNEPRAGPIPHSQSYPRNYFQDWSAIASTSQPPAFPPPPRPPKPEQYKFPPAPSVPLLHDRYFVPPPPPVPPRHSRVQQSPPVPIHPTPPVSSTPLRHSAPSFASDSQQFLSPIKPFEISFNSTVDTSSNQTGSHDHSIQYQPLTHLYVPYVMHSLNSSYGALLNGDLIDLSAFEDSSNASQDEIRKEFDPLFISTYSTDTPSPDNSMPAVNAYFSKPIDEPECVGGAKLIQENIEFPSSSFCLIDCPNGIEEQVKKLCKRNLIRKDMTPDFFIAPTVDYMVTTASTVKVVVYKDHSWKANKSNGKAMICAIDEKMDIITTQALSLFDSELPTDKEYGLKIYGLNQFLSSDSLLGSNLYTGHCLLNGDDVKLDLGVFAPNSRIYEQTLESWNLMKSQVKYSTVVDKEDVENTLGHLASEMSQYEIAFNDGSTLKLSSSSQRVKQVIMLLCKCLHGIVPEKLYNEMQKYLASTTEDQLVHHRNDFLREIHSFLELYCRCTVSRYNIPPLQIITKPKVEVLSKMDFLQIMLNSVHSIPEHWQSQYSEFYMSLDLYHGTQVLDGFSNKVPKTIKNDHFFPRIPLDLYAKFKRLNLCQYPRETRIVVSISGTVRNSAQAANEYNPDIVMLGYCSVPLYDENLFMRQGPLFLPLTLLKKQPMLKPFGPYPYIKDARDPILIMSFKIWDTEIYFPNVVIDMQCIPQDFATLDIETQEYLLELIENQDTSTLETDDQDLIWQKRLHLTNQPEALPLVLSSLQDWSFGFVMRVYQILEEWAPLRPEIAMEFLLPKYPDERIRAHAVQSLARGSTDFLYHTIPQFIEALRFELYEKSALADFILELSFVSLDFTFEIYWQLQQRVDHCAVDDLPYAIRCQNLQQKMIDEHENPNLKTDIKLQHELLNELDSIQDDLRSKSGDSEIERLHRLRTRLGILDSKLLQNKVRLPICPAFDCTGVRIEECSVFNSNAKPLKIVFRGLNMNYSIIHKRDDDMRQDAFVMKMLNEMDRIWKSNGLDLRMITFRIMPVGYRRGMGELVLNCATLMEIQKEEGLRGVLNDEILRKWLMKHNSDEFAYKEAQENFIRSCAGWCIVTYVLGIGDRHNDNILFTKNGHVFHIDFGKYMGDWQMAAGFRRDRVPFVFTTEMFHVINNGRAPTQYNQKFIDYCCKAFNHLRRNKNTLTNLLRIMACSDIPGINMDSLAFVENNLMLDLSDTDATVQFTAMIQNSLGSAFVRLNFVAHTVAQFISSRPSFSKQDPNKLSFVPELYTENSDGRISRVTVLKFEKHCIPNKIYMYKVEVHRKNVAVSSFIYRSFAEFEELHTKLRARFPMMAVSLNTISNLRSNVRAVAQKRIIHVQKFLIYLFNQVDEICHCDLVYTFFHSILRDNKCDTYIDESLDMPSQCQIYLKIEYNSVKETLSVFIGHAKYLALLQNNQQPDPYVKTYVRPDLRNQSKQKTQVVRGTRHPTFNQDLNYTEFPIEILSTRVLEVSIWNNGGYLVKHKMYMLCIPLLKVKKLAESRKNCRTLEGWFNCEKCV

What was measured:
Experiment in all cases: proximity labelling; endogenously expressed bait–TurboID fusions label proximal proteins in vivo in mixed-stage C. elegans grown at 25 °C without added biotin; RIPA lysate, 1 h at room temperature on streptavidin beads, stringent washes, on-bead trypsin digestion, DIA LC-MS/MS; enrichment against N2 (no TurboID), Filter-1 and Filter-2 with the mNG::TurboID control; Exp 1–8 taken together (Exp 3 with depletion of His10-tagged carboxylases and AX7884 as control, Exp 5 DDA, Exp 7 with auxin for 2 h, Exp 8 with N-terminal fusions)
[1] = target: T1, NEKL-2::TurboID (C. elegans) (UniProt O01775)
T1 sequence: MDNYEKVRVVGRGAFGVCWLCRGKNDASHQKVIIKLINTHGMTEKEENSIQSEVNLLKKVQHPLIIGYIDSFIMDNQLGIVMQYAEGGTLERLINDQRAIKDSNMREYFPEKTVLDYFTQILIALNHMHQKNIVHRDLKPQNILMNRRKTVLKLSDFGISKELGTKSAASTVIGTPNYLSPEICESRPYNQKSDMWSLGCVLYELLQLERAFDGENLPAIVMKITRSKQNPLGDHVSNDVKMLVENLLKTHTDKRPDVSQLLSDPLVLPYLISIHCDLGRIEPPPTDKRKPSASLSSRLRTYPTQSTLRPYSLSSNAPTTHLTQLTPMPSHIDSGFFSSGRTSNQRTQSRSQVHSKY

[2] = target: T2, TurboID::NEKL-2 (C. elegans) (UniProt O01775)
T2 sequence: T1 sequence

[3] = target: NEKL-3::TurboID (C. elegans) (UniProt G5EFM9)
[4] = target: T1, NEKL-2::TurboID (C. elegans); remark: listed apart in the source
[5] = target: MLT-3::TurboID (C. elegans)

Molecule: FCHO-1 (C. elegans)
binding [1]: binds

Molecule: PIKI-1 (from UniProt G5EDY0 1-1607)
binding [1]: binds

B1: UNC-16 (protein, UniProt P34609 1-1190)
chain: MACNLSPVNEMADSITSSTPSEIVYGGPGSPDEHRTMSDKVQTMASAIYRELETMIKVHGEDGVKTLMPLVVNVLEALDLAYLERDEQTAELEMLKEDNEQLQTQYEREKALRKQTEQKYIEIEDTLIGQNKELDKKIESLESIMRMLELKAKNATDHASRLEEREVEQKLEFDRLHERYNTLLRTHVDHMERTKYLMGSEKFELMQNMPLPNMQLRNKMGMAASVDASSIRGVSDLISAHMTQSTTMDVNLANHITNEDWQDEFSSDIEPSPRDIPQSSADALTSPITTKEPTPKREAASPKQSEEEEADETTSVDPKENNDLLGADLTDDESDWNGLGLIPRRHRPNEMLDDDDTSDDGSLGMGREVENLIKENSELLDMKNALNIVKNDLINQVDELNSENMILRDENLSRQMVSEKMQEQITKHEEEIKTLKQKLMEKENEQEEDDVPMAMRKRFTRSEMQRVLMDRNAYKEKLMELEESIKWTEMQRAKKMQQQQQNVNQKKSGGIWEFFSSLLGDSVTPPASSRGNRASSSRGKMTRSVEYIDPDMISERRAAERREQYKLVREHVKKEDGRIEAYGWSLPNVEAEVSSVPIPVCCRPLLDNEPSLKIWCATGVVLRGGRDERGQWIVGDPIYFAPASMKKTKTSNHRPELEDEIKRARNLDARESELDEWQSSSLVWVVSSNQGKSLIAVLDANNPNNIIETFPACDSHLLCIQAVSGVMEGEPEMNEEQSKKYLSGGGKIKDLPEGLDGTDLGACEWVELRKMEDSEDGVPTYCSNDMKPSPKRTRDFSISEVAPVDSSAPVKEDPLPPPANRPGGRAALPPHIRDAMSKYDGVSGQMSGALPTVWMGGQNQYIYIHSAVTAWKQCLRRIKMPDAVLSIVHYKSRIFAALANGTIAIFHRNKHGEWSDEGYHSLRVGSATSSVRSLCLVSTNIWATYKNCVVVLDAESLQIVKVFAAHPRKDSQVRNMQWVGAGVWLSIRLDSTLRLYHAHTYEHLQDVDIEPYVTKMLGTSKLDFSYMRTTALLVSNRRLWIGTGTGVIISVPFSGQLEKKIETKDSKRPAGPGGLVRVYGATSENATNDEKTNDDFIPYCNLAHAQLSFHGHKDSVKFFLGVPGASKNGEDESAEVTLRRMLIMSGGDGYIDFRIGEENEPELTGQSIRPRDMSHLIIWEVDAELPILSK
binding [3]: binds

B2: CDC-37 (protein, UniProt O02108 1-370)
chain: MPIDYSKWKDIEVSDDEDDTHPNIDTPSLFRWRHQARLERMAEKKMEQEKIDKEKGTTSKKMEELEKKLAAADVTDKSDIQKQIDEVKAQEEAWRKKEAELEEKERLEPWNVDTIGHEAFSTSRINKITEKKPQAPKTDEEDTHAMSTFFETHESLLEKMAVLKNGAKSTELFLAEHPHMASEYTANWLTIEALNAAIDFNEEKMKTMAEQCIIIQYLLELSKSLNAVATNTTVQKQFFKKFEAAEPVYMKHYQDEVKAFEDRLRTRAQTKRDAAMEEAEAEEKAERMKSAPGGIDPQEVFEQLPEEMRKCFEAHDIEALKGVAQKMDEEVFKYHFDRCIASGLWVPGKADDDDDDEEAAPAEEEPTTSS
binding [4]: binds

B4: TAT-1 (protein, UniProt Q9U280 1-1139)
chain: MPTEARDNNRHIHLGKVRDPHHQHAQRFCSNRISTCKYNGFSFLPRFLYEQFRRYNNIFFLAIALLQQIPDVSPTGRYTTAVPFLIILSVSALKEIFEDVKRRRSDNKVNAFSVEILVDGHWIEKQWKDVSVGDFIRIDNDSLFPADLLLLASSEQQGMAYIETSNLDGETNLKIKQALDITSTMTSPEKLSQFESEITCEPPSRHVNEFNGNIEINGVARHFGIDQLLLRGARLKNTAWIFGAVIYTGHDSKLLMNSKRAPLKSGTIDVQTNYRIIFLFFVLVALALISATGSEIWRGNNIPQAWYLSFLEHDPKGSFLWGVLTFFILYNNLIPISLQVTLEVVRFFQAIYINNDIEMYDVNSDSCAIARTSNLNEELGQVKFIMSDKTGTLTRNVMKFKRLSIGSRNYGNNEDDEFADASLIEDYRQGDEHSTSILEVLKMMAVCHTVVPENKDGQLIYQSSSPDEAALVRGAASQSVSFHTRQPQKVICNVFGEDETIEILDVIDFTSDRKRMSVIVRDGAGGDIKLYTKGADTVIFERLEHGKEQEEAVEYCTEHLEDYASFGYRTLCFSMRHLTEQEYSQWAPEYKKAILAIDNRAKLLADAAEKLERNMILVGATAIEDKLQEWVPETIQALMAADIRVWMLTGDKRETAINIAHSCALCHTNTELLIVDKTTYEETYQKLEQFVARAIELEKQEKGFAMVIDGKSLLHALTGEARKHFGDLALRCHAVVCCRMSPMQKAEVVEMVRKLAKHVVLAIGDGANDVAMIQAANVGVGISGEEGLQAASASDYAIPRFHFLRRLLLVHGAWNHDRSVKVILYSFYKNICLYIIELWFAMFSAWSGQTIFERWTIGMFNVIFTAWPPVVLGLFDHPVPAEQIMKYPALYASFQNRAFSIGNFSLWIGLAIVHSLSLFFLTYATMEHQVVWDNGLTGGWLMLGNCAYTFVVATVCFKALLECDSWTWPVVVACIGSIGLWIVFVIVYSLVFPHIGGIGADMAGMAAIMMSSYTFWLALLFIPLATLLWDLVIKSLFTIAMPTPRELAVMYNKRTTSFNGFERLASYSSNVLENMRLLTSSLRGSTTGSTRSRTASEASLALAEQTRYGFAFSQDESSAVAQTELIRNVDSTREKPTGR
binding [4]: binds

Further lines, results first:

binding [1]: binds
Molecule: EEA-1 (C. elegans)

binding [1]: binds
binding [2]: binds
Molecule: MLT-2::TurboID (from UniProt Q17583)

binding [1]: binds
Molecule: MLT-3::TurboID (C. elegans)

binding [1]: binds
Molecule: MLT-4::TurboID (C. elegans)

binding [1]: binds
Molecule: NEKL-3::TurboID (from UniProt G5EFM9 1-302)

binding [5]: binds
B3: NEKL-2::TurboID (protein, UniProt O01775 1-357)
chain: T1 sequence
